This assay relates to bronchoconstriction induced by sodium arachidonate. Briefly: Dynamic compliance and airway resistance in the anaesthetized guinea pig challenged with sodium arachidonate. The format is in vivo. Particulars: dose 3.85 mg/kg intravenously. Here is the method:
The ability of Cohn subfraction IV4 and haptoglobin to reduce the transient hypertension caused by administration of sodium arachidonate in the guinea pig was also measured. These tests were carried out as follows.
Male albino guinea pigs weighing 400-600 g each (Dunkin Hartley strain) were anesthetized by administration of sodium pentobarbitone, 60 mg/kg intraperitoneally. The trachea was cannulated for artificial ventilation by a Starling pump (5-8 ml at 72 strokes per minute) via a Fleisch 0000 pneumatachograph. The difference in pressure across this device was measured with a Grass differential pressure transducer. […] Transpulmonary pressure (TPP) was measured with another differential pressure transducer via side arms to the thoracic cavity and the tracheal cannula. The signals for low and TPP were applied to the analogue computer so that there was approximately 180° phase difference. The computer derived the dynamic compliance and resistance from the in-going signals. Drugs were administered intravenously via the external jugular vein. A 1 mg/ml solution of sodium arachidonate was prepared as follows. […] These doses were given at 30 minute intervals to produce a large but submaximal bronchoconstriction. After 2 or 3 similar responses to the same dose of sodium arachidonate had been obtained, the test substance in saline (0.1 to 1 ml) was injected intravenously. At various times thereafter, a challenge was given.

Setting [1] is: challenge 10 min after treatment.
The mark [2] stands for this setting: challenge 30 min after treatment.
Where [3] appears, read: challenge 60 min after treatment.
[4] abbreviates: challenge 90 min after treatment.
Setting [5] is: challenge 120 min after treatment.
The mark [6] stands for this setting: challenge 150 min after treatment.
[7] abbreviates: challenge 180 min after treatment.

In the case of `C[C@@H]1C[C@H]2[C@@H]3CCC4=CC(=O)C=C[C@]4(C)[C@@]3(F)[C@@H](O)C[C@]2(C)[C@@]1(O)C(=O)COP(=O)(O)O` [Dexamethasone, dexamethasone sodium phosphate], the “Mean % Inhibition (± s.e.) of educed dynamic lung compliance” value was determined as 35.0 ± 7.6% under setting [1]; 55.0 ± 5.0% under setting [2]; 57.0% under setting [3]; 54.0% under setting [4]; 43.0% under setting [5]; 34.0% under setting [6]. For the same molecule, the “Mean % Inhibition (± s.e.) of educed dynamic lung compliance” value under setting [7] turned out to be 37.0%. In addition, the “Mean % Inhibition (± s.e.) of increased airway resistance” value runs as follows: under setting [1], 45.3 ± 12.2%; under setting [2], 65.0 ± 7.0%; under setting [3], 50.0%; under setting [4], 33.0%; under setting [5], 25.0%; under setting [6], 17.0%. Further, the “Mean % Inhibition (± s.e.) of increased airway resistance” value under setting [7] stood at 8.0%.

(Values after patent publication US4129648A, “Method for reducing endogenous prostaglandin synthesis” (priority 1977, dated 1978).)
